Assay results as given in paper PMC6158211.
These are yes or no findings as the source states them, for the method shown. In cells and extracts the contact can be indirect. Here binding means that the protein was enriched with, or labelled near, the bait; the list need not be complete. Sequences can lack the tags named with a protein.

T1: 3xFlag-UBL3 (wild-type ubiquitin-like 3 / membrane-anchored Ub-fold protein) (UniProt O95164)
T1 sequence: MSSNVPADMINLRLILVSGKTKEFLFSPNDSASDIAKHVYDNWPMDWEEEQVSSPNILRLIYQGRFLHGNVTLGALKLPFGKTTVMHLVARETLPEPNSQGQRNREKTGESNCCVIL


biological target: T1, 3xFlag-UBL3 (wild-type ubiquitin-like 3 / membrane-anchored Ub-fold protein); assay: affinity purification with mass spectrometry; 3xFlag-UBL3, 3xFlag-UBL3C113/114A or 3xFlag empty vector expressed in MDA-MB-231 cells; 1% Triton buffer lysate, anti-Flag M2 affinity gel 16 h at 4 °C, on-bead digestion, LC-MS/MS with label-free quantification, triplicate pull-downs

Row | binding | Binder
1 | binds | TGFBR1 (receptor, UniProt P36897 34-503) LQCFCHLCTKDNFTCVTDGLCFVSVTETTDKVIHNSMCIAEIDLIPRDRPFVCAPSSKTGSVTTTYCCNQDHCNKIELPTTVKSSPGLGPVELAAVIAGPVCFVCISLMLMVYICHNRTVIHHRVPNEEDPSLDRPFISEGTTLKDLIYDMTTSGSGSGLPLLVQRTIARTIVLQESIGKGRFGEVWRGKWRGEEVAVKIFSSREERSWFREAEIYQTVMLRHENILGFIAADNKDNGTWTQLWLVSDYHEHGSLFDYLNRYTVTVEGMIKLALSTASGLAHLHMEIVGTQGKPAIAHRDLKSKNILVKKNGTCCIADLGLAVRHDSATDTIDIAPNHRVGTKRYMAPEVLDDSINMKHFESFKRADIYAMGLVFWEIARRCSIGGIHEDYQLPYYDLVPSDPSVEEMRKVVCEQKLRPNIPNRWQSCEALRVMAKIMRECWYANGAARLTALRIKKTLSQLSQQEGIKM
2 | binds | RB1 (protein, UniProt P06400 1-928) MPPKTPRKTAATAAAAAAEPPAPPPPPPPEEDPEQDSGPEDLPLVRLEFEETEEPDFTALCQKLKIPDHVRERAWLTWEKVSSVDGVLGGYIQKKKELWGICIFIAAVDLDEMSFTFTELQKNIEISVHKFFNLLKEIDTSTKVDNAMSRLLKKYDVLFALFSKLERTCELIYLTQPSSSISTEINSALVLKVSWITFLLAKGEVLQMEDDLVISFQLMLCVLDYFIKLSPPMLLKEPYKTAVIPINGSPRTPRRGQNRSARIAKQLENDTRIIEVLCKEHECNIDEVKNVYFKNFIPFMNSLGLVTSNGLPEVENLSKRYEEIYLKNKDLDARLFLDHDKTLQTDSIDSFETQRTPRKSNLDEEVNVIPPHTPVRTVMNTIQQLMMILNSASDQPSENLISYFNNCTVNPKESILKRVKDIGYIFKEKFAKAVGQGCVEIGSQRYKLGVRLYYRVMESMLKSEEERLSIQNFSKLLNDNIFHMSLLACALEVVMATYSRSTSQNLDSGTDLSFPWILNVLNLKAFDFYKVIESFIKAEGNLTREMIKHLERCEHRIMESLAWLSDSPLFDLIKQSKDREGPTDHLESACPLNLPLQNNHTAADMYLSPVRSPKKKGSTTRVNSTANAETQATSAFQTQKPLKSTSLSLFYKKVYRLAYLRLNTLCERLLSEHPELEHIIWTLFQHTLQNEYELMRDRHLDQIMMCSMYGICKVKNIDLKFKIIVTAYKDLPHAVQETFKRVLIKEEEYDSIIVFYNSVFMQRLKTNILQYASTRPPTLSPIPHIPRSPYKFPSSPLRIPGGNIYISPLKSPYKISEGLPTPTKMTPRSRILVSIGESFGTSEKFQKINQMVCNSDRVLKRSAEGSNPPKPLKKLRFDIEGSDEADGSKHLPGESKFQQKLAEMTSTRTRMQKQKMNDSMDTSNKEEK

Further lines, the binder ahead of its results:

Row | Binder | binding
3 | ITGA6 (protein, UniProt P23229 24-1130) FNLDTREDNVIRKYGDPGSLFGFSLAMHWQLQPEDKRLLLVGAPRAEALPLQRANRTGGLYSCDITARGPCTRIEFDNDADPTSESKEDQWMGVTVQSQGPGGKVVTCAHRYEKRQHVNTKQESRDIFGRCYVLSQNLRIEDDMDGGDWSFCDGRLRGHEKFGSCQQGVAATFTKDFHYIVFGAPGTYNWKGIVRVEQKNNTFFDMNIFEDGPYEVGGETEHDESLVPVPANSYLGLLFLTSVSYTDPDQFVYKTRPPREQPDTFPDVMMNSYLGFSLDSGKGIVSKDEITFVSGAPRANHSGAVVLLKRDMKSAHLLPEHIFDGEGLASSFGYDVAVVDLNKDGWQDIVIGAPQYFDRDGEVGGAVYVYMNQQGRWNNVKPIRLNGTKDSMFGIAVKNIGDINQDGYPDIAVGAPYDDLGKVFIYHGSANGINTKPTQVLKGISPYFGYSIAGNMDLDRNSYPDVAVGSLSDSVTIFRSRPVINIQKTITVTPNRIDLRQKTACGAPSGICLQVKSCFEYTANPAGYNPSISIVGTLEAEKERRKSGLSSRVQFRNQGSEPKYTQELTLKRQKQKVCMEETLWLQDNIRDKLRPIPITASVEIQEPSSRRRVNSLPEVLPILNSDEPKTAHIDVHFLKEGCGDDNVCNSNLKLEYKFCTREGNQDKFSYLPIQKGVPELVLKDQKDIALEITVTNSPSNPRNPTKDGDDAHEAKLIATFPDTLTYSAYRELRAFPEKQLSCVANQNGSQADCELGNPFKRNSNVTFYLVLSTTEVTFDTPDLDINLKLETTSNQDNLAPITAKAKVVIELLLSVSGVAKPSQVYFGGTVVGEQAMKSEDEVGSLIEYEFRVINLGKPLTNLGTATLNIQWPKEISNGKWLLYLVKVESKGLEKVTCEPQKEINSLNLTESHNSRKKREITEKQIDDNRKFSLFAERKYQTLNCSVNVNCVNIRCPLRGLDSKASLILRSRLWNSTFLEEYSKLNYLDILMRAFIDVTAAAENIRLPNAGTQVRVTVFPSKTVAQYSGVPWWIILVAILAGILMLALLVFILWKCGFFKRSRYDDSVPRYHAVRIRKEEREIKDEKYIDNLEKKQWITKWNENESYS | binds
4 | ATXN10 (protein, UniProt Q9UBB4 1-475) MAAPRPPPARLSGVMVPAPIQDLEALRALTALFKEQRNRETAPRTIFQRVLDILKKSSHAVELACRDPSQVENLASSLQLITECFRCLRNACIECSVNQNSIRNLDTIGVAVDLILLFRELRVEQESLLTAFRCGLQFLGNIASRNEDSQSIVWVHAFPELFLSCLNHPDKKIVAYSSMILFTSLNHERMKELEENLNIAIDVIDAYQKHPESEWPFLIITDLFLKSPELVQAMFPKLNNQERVTLLDLMIAKITSDEPLTKDDIPVFLRHAELIASTFVDQCKTVLKLASEEPPDDEEALATIRLLDVLCEMTVNTELLGYLQVFPGLLERVIDLLRVIHVAGKETTNIFSNCGCVRAEGDISNVANGFKSHLIRLIGNLCYKNKDNQDKVNELDGIPLILDNCNISDSNPFLTQWVIYAIRNLTEDNSQNQDLIAKMEEQGLADASLLKKVGFEVEKKGEKLILKSTRDTPKP | binds
